This is one part of the list.

Protein sequences, listed by entry. Tags and fused reporters are not part of them.
UniProt Q0JBA9, entry or part of it: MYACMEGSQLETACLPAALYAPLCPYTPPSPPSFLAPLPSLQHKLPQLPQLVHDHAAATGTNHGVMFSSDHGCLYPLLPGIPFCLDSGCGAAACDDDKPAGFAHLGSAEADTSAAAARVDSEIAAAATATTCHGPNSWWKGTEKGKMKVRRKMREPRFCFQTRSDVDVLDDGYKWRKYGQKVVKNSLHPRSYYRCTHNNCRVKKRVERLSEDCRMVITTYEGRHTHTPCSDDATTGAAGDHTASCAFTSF

The text below walks through data of paper PMC7819943, “Rice protein-binding microarrays: a tool to detect cis-acting elements near promoter regions in rice”.

For this experiment, the target named is OsWRKY34 (Oryza sativa, UniProt Q0JBA9 1-250). Description: protein-binding microarray (RPBM); PBS, 2% BSA, 51.3 ng/ul salmon testes DNA, 50 uM zinc acetate, 200 nM TF, 25 C, 1 h; high values mean tight binding. Particulars: protein: recombinant; tags: N-terminal polyhistidine and DsRed monomer fusion (pET32a); label: CyDye5-dUTP incorporated in the synthesized complementary strand; 3' TTTTT single-stranded linker to array surface; dsDNA, one strand shown. The gist of the method: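 The binding signal is fluorescence intensity per feature, in arbitrary units, read on an Axon 4000B scanner. Polyhistidine- and DsRed-tagged transcription factors (N-terminal fusions) from E. coli BL21-CodonPlus were purified on Ni–NTA and applied at 200 nM for 1 h at 25 °C to a double-stranded, BSA-blocked custom Agilent array in buffer with 50 µM zinc acetate.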
As for “CGGAGGTCTTGGCGACCACCTCTCGCCACCTTCGCCTCCACGGAGTCACCTAGTGCAG”, the binding signal is 8560 fluorescence intensity (a.u.).

As to “TATTCTGAAGTCACTCGTACATTGCAAAGCACACTACTCCCGGAGTCACCTAGTGCAG”, the binding signal was 8240 fluorescence intensity (a.u.).

Regarding “CCCTCGCCGCCGCCCCGCCTCTTCCTCGCGCCGCCACCGCCGGAGTCACCTAGTGCAG”, the binding signal is 11100 fluorescence intensity (a.u.). To “TCCACTTCCAACATCTACTATCTTTTCTCACGCTTTTTCCCGGAGTCACCTAGTGCAG” belongs 8630 fluorescence intensity (a.u.). The same measure for “TTCTGTATTCAAACACCACCTTACAACTGTTGGAGTGCTGCGGAGTCACCTAGTGCAG”: 8310 fluorescence intensity (a.u.); for “TGATGAGATTTGGTGGTGTGTTTTTTTTTGGCAATCATCCCGGAGTCACCTAGTGCAG”: 9730 fluorescence intensity (a.u.); for “GCTATATGGAGTGTTAGCTGATGAGTAATGAATGTACAAACGGAGTCACCTAGTGCAG”: 8450 fluorescence intensity (a.u.).

Turning to “GTATTTCTATTACCTGCTGTATAACTTGCACATCCTTTTTCGGAGTCACCTAGTGCAG”, the binding signal was 10700 fluorescence intensity (a.u.). The same measure for “CAGTTCTTTTCATCCTTTTCCAAGGCGCGCGCGCGGTCACCGGAGTCACCTAGTGCAG”: 8200 fluorescence intensity (a.u.); for “CGCACACCACCGCCTACGTAGTAGCTCTGATCGGCGCTGTCGGAGTCACCTAGTGCAG”: 8250 fluorescence intensity (a.u.); for “TTTCAATTGTCTTCAGAATGTGCTCTTTAAACTTAATTTTCGGAGTCACCTAGTGCAG”: 8030 fluorescence intensity (a.u.). The same measure for “CAGTAGGCAGGTTAGGTCAGGTCAGGTACGGACGCATCCCCGGAGTCACCTAGTGCAG”: 8250 fluorescence intensity (a.u.). The same measure for “ATTTGGTTTTATATGTTTGTGGAGTGATATATTTCGTATTCGGAGTCACCTAGTGCAG”: 8350 fluorescence intensity (a.u.); for “ACGGGTTAGATCTATTTTCGCAAAACTTGCCATGGATGTACGGAGTCACCTAGTGCAG”: 9120 fluorescence intensity (a.u.).

With “CACTTCCACGACCATTCTCCTGGGGCTTTCCATCATGAAGCGGAGTCACCTAGTGCAG”, the binding signal was 8870 fluorescence intensity (a.u.). The same measure for “CGCCAATCCAGCTTTTCTTCTCCCTGCACTCACACACATCCGGAGTCACCTAGTGCAG”: 9530 fluorescence intensity (a.u.); for “TGGGTGGGGATGAGTTCTTGATTTGCCGCCGCCACCGCACCGGAGTCACCTAGTGCAG”: 13900 fluorescence intensity (a.u.). The same measure for “TTCATTTTTACTAAAATTTTAACAGTCTTCTGAATTTTCTCGGAGTCACCTAGTGCAG”: 8660 fluorescence intensity (a.u.).

Regarding “TTGGACACAAGGGGTGGTGGTGCAGTTGGCTAGCGCGTAGCGGAGTCACCTAGTGCAG”, the binding signal was 13100 fluorescence intensity (a.u.). Consider “CCCAGCTAGTTATTCTTCATTTAATATATAATCGATCACTCGGAGTCACCTAGTGCAG”, for which the binding signal is 8500 fluorescence intensity (a.u.). To “GTATGCCAACATGTGCTAATTTCTCCGACGAAATGTTTCACGGAGTCACCTAGTGCAG” belongs 9660 fluorescence intensity (a.u.); to “ACTCCATCTGTTTCACGACGTTTTGAGTTTGGTCAAAGTCCGGAGTCACCTAGTGCAG”, 11400 fluorescence intensity (a.u.); to “AGTATCCAATTACACGGTGTAAAGCTCGCTACAGTTCGATCGGAGTCACCTAGTGCAG”, 8480 fluorescence intensity (a.u.). The same measure for “GGGTGCTCTCGATTATTTTCCCCGTCAGTTGACAGGCAGACGGAGTCACCTAGTGCAG”: 9030 fluorescence intensity (a.u.); for “GCGACATTCTCTCCGACGAAATACGGCTTCCGCCCAATCCCGGAGTCACCTAGTGCAG”: 8050 fluorescence intensity (a.u.); for “GCCATGAAGCAACCACGACCGCGACTATTCAACTCTCCAACGGAGTCACCTAGTGCAG”: 8530 fluorescence intensity (a.u.).

Regarding “CGGCACCACCACGCCGCTCTTCTCACTCAGGTCCCGCATGCGGAGTCACCTAGTGCAG”, the binding signal is 9210 fluorescence intensity (a.u.). The same measure for “CTGCTGGGCCTCTTCTTCGTGTTGACTGTGATCCGAGTATCGGAGTCACCTAGTGCAG”: 11700 fluorescence intensity (a.u.). The same measure for “TACTAGTACTGTGAAGTTTCTAGTTTCTTGTTTTCAGTTTCGGAGTCACCTAGTGCAG”: 8320 fluorescence intensity (a.u.); for “TTGCCGTAGCCCAACCCCACGCTATATGGTCCCATGCACACGGAGTCACCTAGTGCAG”: 8930 fluorescence intensity (a.u.).

Turning to “AGTAGTGGAGTACATTCCTGTTCGTGGCGCCATATATTATCGGAGTCACCTAGTGCAG”, the binding signal is 8260 fluorescence intensity (a.u.). As for “CCTTCGCCTTCTTGGGTCCGCTTCTTTCCTGTGGTGGGCGCGGAGTCACCTAGTGCAG”, the binding signal is 8750 fluorescence intensity (a.u.). To “ATTCTCCCATCTATATCCCTCTATCTCTCTCTCAGTTTTGCGGAGTCACCTAGTGCAG” belongs 8280 fluorescence intensity (a.u.); to “ACAAGGTGATCGGGGTAGGGGTGTAGTTACCTTCTCGTAGCGGAGTCACCTAGTGCAG”, 10100 fluorescence intensity (a.u.); to “CTCACTCACTTCACTCTCTCGTTCTCTCTCTCCCATCCTGCGGAGTCACCTAGTGCAG”, 9910 fluorescence intensity (a.u.). The same measure for “CCTCTCTTTTCGCTTATACTTATGCTTATCACTTAAAATTCGGAGTCACCTAGTGCAG”: 8360 fluorescence intensity (a.u.); for “TAGATCAATACTGCCTAACGAACTTTTTTTTTTTTTTACGCGGAGTCACCTAGTGCAG”: 16400 fluorescence intensity (a.u.); for “TTTTTAAATATGTTTGACCGTTTGTCTTATTCAAAAAATTCGGAGTCACCTAGTGCAG”: 8690 fluorescence intensity (a.u.).

“CTCTTATCTTTTACCTCATTATGCTATTGTACCTGCTCTACGGAGTCACCTAGTGCAG”: the binding signal was 11400 fluorescence intensity (a.u.).

For the sequence “GTGTTTGGTTCGCTGCCGCAATTGTGTTATGCCACACTTTCGGAGTCACCTAGTGCAG”, the binding signal was 10800 fluorescence intensity (a.u.). The same measure for “TCCGTATCCAATGATCGATGTGACTAATTTTTACACCCGACGGAGTCACCTAGTGCAG”: 8040 fluorescence intensity (a.u.). The same measure for “ATCGTGCTATGGACTGTTCTGTTTTCGTGCTAGGGTGATACGGAGTCACCTAGTGCAG”: 9930 fluorescence intensity (a.u.).
